Laboratory results reported in PubChem BioAssay AID493014 (National Center for Advancing Translational Sciences (NCATS), 2011).
Some of the results follow. These are further read-outs of the screen, such as a control signal, another cell line or another target. No call is given for them. The list favours compounds with an active or inconclusive main result. Words in brackets tell the shape of the fitted curve; partial curves, single points and poor fits give uncertain potencies.

Assay: qHTS Assay to Find Inhibitors of Chronic Active B-Cell Receptor Signaling
Details: ABC-DLBCL IkBa-CBG/CBR reporter, luminescence ratio (green luciferase fused to IkBa over red control in TMD8 lymphoma cells), 4 h
Summary of the method: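 Doxycycline induced both beetle luciferases in TMD8 lymphoma cells; IKK-driven degradation limits the IkappaBalpha-fused green signal, while red luminescence normalises for cell number and nonspecific effects. Compounds tested up to 46 uM, 4 hrs.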

[1] = measured here: CBR red luminescence, cell number
[2] = measured here: IkBa-CBG green luminescence

SMILES | AC50 [1] | AC50 [2]
COc1cc(CN2CCN(S(=O)(=O)c3ccc(NC(C)=O)cc3)CC2)cc(OC)c1OC | 20 µM [rising, partial curve, poor fit] | 
CCOCCOC(=O)c1ccc(NC(=O)c2cc(OC)c(OC)c(OC)c2Br)cc1 | 14.6 µM [rising, partial curve] | 
O=C(Cc1ccc([N+](=O)[O-])cc1)Nc1ccc2c(c1)C(=O)NC2=O | 1.12 µM [falling, partial curve] | 
CC(CCn1cccn1)NC(=O)c1cc(COc2ccc(F)cc2F)on1 (configuration not stated) | 15.8 µM [rising, single point] | 
Cc1cc2nc(-c3cccnc3SCC(=O)NCc3ccco3)[nH]c2cc1C | 7.94 µM [falling, partial curve, poor fit] | 
O=C(COC(=O)c1ccccc1NC(=O)c1ccco1)Nc1ccc2c(c1)OCO2 | 5.62 µM [rising, single point] | 
O=[N+]([O-])c1nn(-c2ccc3c(c2)OCCO3)n(O)c1=Nc1ccccc1 | 16.4 µM [falling, partial curve] | 
O=c1cc(-c2ccccc2)cc(-c2ccccc2)n1O | 3.66 µM [rising, full curve, poor fit] | 
CC(=O)c1ccc(OCCn2cnc3ccccc32)cc1 | 5.8 µM [rising, partial curve, poor fit] | 32.6 µM [falling, partial curve, poor fit]
C(=N\Nc1nc2ccccc2s1)/c1cccs1 | 11.2 µM [falling, single point] | 
CN1CCN(c2ccc(C(CC(N)=O)NC(=O)Cc3ccc(Br)cc3)cc2[N+](=O)[O-])CC1 (configuration not stated) | 35.5 µM [rising, single point] | 
COCCCN1CC(=O)N2C(c3ccc(OC)c(OC)c3)c3[nH]c4ccccc4c3C[C@H]2C1=O (some centres not stated) | 10 µM [rising, partial curve, poor fit] | 
CC1(C(=O)NCc2ccc(F)cc2)Oc2ccccc2NC1=O (configuration not stated) | 0.631 µM [falling, partial curve, poor fit] | 
CC1CCCC(NC(=O)C2COc3ccccc3O2)C1C (configuration not stated) | 20.6 µM [rising, partial curve] | 
COc1ccc([C@@H]2[C@@H]3C(=O)N(C(C)(C)C)C(=O)[C@@H]3[C@]3(C)C(=O)N(c4cccc(Br)c4)C(=O)N23)cc1 | 22.4 µM [falling, single point] | 
O=C(CN1CCN(Cc2ccccc2)CC1)Nc1ccc(Cl)cn1 | 1.16 µM [falling, partial curve, poor fit] | 
Cn1cnc([N+](=O)[O-])c1Nc1ccc(O)cc1 | 35.5 µM [falling, single point] | 
Cc1ccc(C(=O)NCN2CCN(c3ccccc3)CC2)cc1 | 29.1 µM [rising, single point] | 
Cc1cc(=O)oc2cc(NC(=O)C3COc4ccccc4O3)ccc12 (configuration not stated) | 23.1 µM [rising, partial curve, poor fit] | 
CC(=O)c1ccc(N2CCN(c3ncnc4c3c(-c3ccccc3)cn4-c3ccc(Cl)cc3)CC2)cc1 | 35.5 µM [rising, single point] | 
O=C(CSc1ccccc1C(=O)O)NC1CCCCCCC1 | 18.4 µM [rising, partial curve, poor fit] | 
O=C(NC1CCCCCC1)c1ccco1 | 11.2 µM [falling, partial curve] | 

SMILES | AC50 [1] | AC50 [2]
CCOCCn1c(-c2ccccc2)nc2ccccc21 | 35.5 µM [falling, single point] | 
COCCNC(=O)c1ccc(C(=O)NCCOC)s1 | 29.1 µM [rising, single point] | 
CN(C)c1ccc(/C=C/C(=O)c2c(O)c3ccccc3oc2=O)cc1 | 35.5 µM [falling, single point] | 
CCOc1ccc(S(=O)(=O)N2c3ccccc3CC2C)cc1 (configuration not stated) | 11.6 µM [rising, partial curve, poor fit] | 14.6 µM [falling, partial curve]
Cc1ccc(-c2nnc(SCC(=O)Nc3ccccc3F)o2)cc1 | 4.47 µM [falling, partial curve] | 
CCOC(=O)Cc1csc(NC(=S)NC(=O)CC(C)C)n1 | 14.6 µM [falling, single point] | 
Cn1nnnc1Sc1ncnc2scc(-c3ccc(C(F)(F)F)cc3)c12 | 1.46 µM [falling, full curve] | 5.17 µM [rising, partial curve, poor fit]
CCOc1ccc(/C=C(\C#N)C(=O)NCC2CCCO2)cc1OCC (configuration not stated) | 29.1 µM [falling, single point] | 
CCc1c(C(=O)NC2CCCCC2)[nH]c(C)c1C(C)=O | 2.82 µM [rising, partial curve, poor fit] | 
CCC(C)NC(=O)/C=C/c1cccs1 (configuration not stated) | 29.1 µM [falling, single point] | 
O=C(O)CCC(=O)Nc1ccccc1C(=O)NCc1ccccc1 | 29.1 µM [rising, single point] | 
C=CC[C@H](CC(=O)N(CCO)Cc1ccccc1)C(=O)N[C@H](COC(=O)[C@H](CC=C)CC(=O)OC(C)(C)C)Cc1c[nH]c2ccccc12 | 23.1 µM [falling, single point] | 
Cc1ccc(C2C(C#N)=C(N)Oc3n[nH]c(C)c32)cc1 (configuration not stated) | 31.6 µM [falling, single point] | 
O=C(Nc1cccc2nsnc12)c1ccc(F)cc1 | 1.46 µM [falling, partial curve, poor fit] | 
COc1ccccc1-c1cc(C(=O)Nc2c(F)cc(F)cc2Br)no1 | 10 µM [falling, partial curve, poor fit] | 
Cc1ccccc1NC(=O)CSC1=NCCN1 | 29.1 µM [falling, single point] | 
OCC1CCCCN1CC(O)COC(c1ccc(F)cc1)c1ccc(F)cc1 (configuration not stated) | 17.8 µM [falling, single point] | 
Brc1ccc(-c2cnnc(N3CCCC3)n2)cc1 | 7.08 µM [rising, full curve] | 
COc1ccc(CCN(C)C(=O)Cc2ccc(-c3ccccc3)cc2)cc1OC | 0.447 µM [rising, full curve, poor fit] | 
Cc1cc(=O)[nH]c(Nc2cccc(F)c2)n1 | 25.1 µM [rising, single point] | 
COC(=O)C(C)N1C(=O)S/C(=C\c2ccc(-c3ccc(C(=O)O)cc3C)o2)C1=O (configuration not stated) | 5.62 µM [rising, single point] | 
CC(=O)Nc1ccc(S(=O)(=O)NCCC(=O)NCCOc2ccccc2)cc1 | 23.1 µM [rising, single point] | 

SMILES | AC50 [1] | AC50 [2]
O=C(ONc1ccc(N=NC(=O)c2ccccc2O)cc1)c1ccccc1 | 0.206 µM [falling, full curve] | 
CCOC(=O)c1nn(-c2cccc(OC)c2)c2nc(Nc3ccccc3)cc(=O)n12 | 25.9 µM [falling, single point] | 
O=C(NCc1cccnc1)c1ccc(NC(=O)c2cccc([N+](=O)[O-])c2)cc1 | 3.55 µM [rising, single point] | 
COc1ccc(OC)c(NC(=O)CSc2ccc3ccccc3c2)c1 | 12.6 µM [falling, single point] | 
Cc1cccc(OCCNc2nc3c(c(=O)n(C)c(=O)n3C)n2C)c1 | 0.0891 µM [falling, full curve, poor fit] | 
O=C(NC(=S)Nc1ccccc1N1CCOCC1)c1ccco1 | 0.58 µM [rising, full curve, poor fit] | 
CCOc1ccc(-c2cc(C)n3nc(C(N)=O)cc3n2)cc1 | 6.51 µM [rising, single point] | 
Oc1ccc(-c2csc(-c3c[nH]c4ccccc34)n2)c(O)c1 | 23.1 µM [falling, single point] | 
Cc1ccc(NC(=O)c2ccccc2OCC(=O)c2ccccc2)cc1 | 5.17 µM [falling, full curve, poor fit] | 
S=C1NC(c2ccccc2)=NCN1c1ccc(Br)cc1 | 0.92 µM [rising, full curve, poor fit] | 
CCCSc1nnc(CNC(=O)C23CC4CC(CC(C4)C2)C3)n1Cc1ccccc1 | 29.1 µM [falling, single point] | 
O=C(C1CC(c2ccccc2O)=NO1)N1CCc2ccccc2C1 (configuration not stated) | 7.31 µM [falling, partial curve, poor fit] | 
Cc1nc2ccccc2nc(=O)c1NNc1ccccc1 | 2.06 µM [falling, full curve] | 
Oc1ccc2ccccc2c1N=Nc1ccccn1 | 3.98 µM [rising, full curve, poor fit] | 
O=C(CCN1C(=O)C2CCCCC2C1=O)N1CCN(S(=O)(=O)c2c(F)cccc2F)CC1 (configuration not stated) | 1.46 µM [rising, full curve, poor fit] | 
COc1ccc(CSCC(=O)NN=C2CCN(C)CC2)cc1 | 14.1 µM [rising, partial curve, poor fit] | 
COc1ccc(Cn2c(O)c(C=Nc3ccccc3C(=O)O)c3ccccc3c2=O)cc1 | 6.31 µM [falling, partial curve, poor fit] | 
Cc1cc(C(=O)Nc2ccccc2)oc(=O)c1 | 14.1 µM [falling, single point] | 
O=C1NCN(c2ccccc2)C12CCN(CCCC(c1ccc(F)cc1)c1ccc(F)cc1)CC2 | 17.8 µM [falling, single point] | 
CN(C)CCN1CC(O)=C(c2nc3ccccc3s2)C1=N | 0.631 µM [rising, full curve, poor fit] | 

Record cards, as listed above:
Cc1cccc(OCCNc2nc3c(c(=O)n(C)c(=O)n3C)n2C)c1 in the list: AC50 [1]: 0.0891 µM [falling, full curve, poor fit]
O=C1NCN(c2ccccc2)C12CCN(CCCC(c1ccc(F)cc1)c1ccc(F)cc1)CC2 in the list: AC50 [1]: 17.8 µM [falling, single point]
Cc1nc2ccccc2nc(=O)c1NNc1ccccc1 in the list: AC50 [1]: 2.06 µM [falling, full curve]
